Experimental data: the supplement of paper PMC10331698
± gives the standard deviation of the averaged measurements. Small differences around the control level are noise.

Experiments:
Experiment in all cases: level (log10 ratio to DMSO vehicle control); higher = higher biomarker level / cell amount than vehicle control
[1] = compound: OCCC(F)(F)C(F)(F)C(F)(F)C(F)(F)C(F)(F)C(F)(F)C(F)(F)C(F)(F)F [8:2 Fluorotelomer alcohol]; conditions: 2200 nM; in DMSO
Protocol: (§1)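 BioMAP Diversity Plus panel of 12 human primary cell co-culture systems (3C, 4H, LPS, SAg, BT, BF4T, BE3C, CASM3C, HDF3CGF, KF3CT, MyoF, Mphg). Compounds were added 1 h before stimulation and left for 24 h (MyoF 48 h; BT 72 h for soluble read-outs or 6 d for IgG). Biomarkers were read by ELISA, cytotoxicity by SRB, PBMC viability and proliferation by Alamar Blue. Each well value was divided by the mean of 8 DMSO control wells on the same plate and log10 transformed; duplicate blinded samples were tested at 4 concentrations.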

[2] = compound: FC(F)(F)C(F)(F)C(F)(F)C(F)(F)C(F)(F)C(F)(F)C(F)(F)CCI [1-Iodo-1H,1H,2H,2H-perfluorononane]; conditions: in DMSO
Protocol: as §1

[3] = compound: O=S(=O)(Cl)C(F)(F)C(F)(F)C(F)(F)C(F)(F)C(F)(F)C(F)(F)C(F)(F)C(F)(F)F [Perfluoro-1-octanesulfonyl chloride]; conditions: 2200 nM; in DMSO
Protocol: as §1

[4] = compound: C=CC(=O)OCC(F)(F)C(F)(F)C(F)(F)C(F)(F)COC(=O)C=C [1H,1H,6H,6H-Perfluorohexane-1,6-diol diacrylate]; conditions: 2200 nM; in DMSO
Protocol: as §1

[5] = compound: O=C(O)C(F)(F)OC(F)(F)C(F)(F)OC(F)(F)C(F)(F)C(F)(F)C(F)(F)F [Perfluoro-3,6-dioxadecanoic acid]; conditions: 2200 nM; in DMSO
Protocol: as §1

[6] = compound: O=C(O)C=CC(F)(C(F)(F)F)C(F)(F)F [3-(Perfluoroisopropyl)-2-propenoic acid]; conditions: in DMSO
Protocol: as §1

[7] = compound: O=P(O)(O)CCC(F)(F)C(F)(F)C(F)(F)C(F)(F)C(F)(F)C(F)(F)C(F)(F)C(F)(F)F [((Perfluorooctyl)ethyl)phosphonic acid]; conditions: 2200 nM; in DMSO
Protocol: as §1

[8] = compound: O=C(O)C(F)(F)OC(F)(F)C(F)(F)OC(F)(F)C(=O)O [Perfluoro-3,6-dioxaoctane-1,8-dioic acid]; conditions: 2200 nM; in DMSO
Protocol: as §1

Perfluoropropanoic acid = compound: O=C(O)C(F)(F)C(F)(F)F [Perfluoropropanoic acid]; conditions: 2200 nM; in DMSO
Protocol: as §1

[9] = compound: O=C(O)C(F)(F)C(F)(F)OC(F)(F)F [Perfluoro-3-methoxypropanoic acid]; conditions: 2200 nM; in DMSO
Protocol: as §1

Perfluoroundecanoic acid = compound: O=C(O)C(F)(F)C(F)(F)C(F)(F)C(F)(F)C(F)(F)C(F)(F)C(F)(F)C(F)(F)C(F)(F)C(F)(F)F [Perfluoroundecanoic acid]; conditions: in DMSO
Protocol: as §1

Perfluorobutanoic acid = compound: O=C(O)C(F)(F)C(F)(F)C(F)(F)F [Perfluorobutanoic acid]; conditions: 2200 nM; in DMSO
Protocol: as §1

[10] = compound: C=C(C)C(=O)OCC(F)(F)C(F)(F)C(F)(F)F [2,2,3,3,4,4,4-Heptafluorobutyl methacrylate]; conditions: 2200 nM; in DMSO
Protocol: as §1

[11] = compound: O=C(O)C(F)(F)C(F)(F)C(F)(F)C(F)(F)C(F)(F)C(F)(F)C(F)(F)C(F)F [9-H-Perfluorononanoic acid]; conditions: 2200 nM; in DMSO
Protocol: as §1

[12] = compound: OCC(F)(F)C(F)(F)C(F)(F)C(F)(F)C(F)(F)C(F)(F)C(F)(F)C(F)(F)C(F)(F)C(F)(F)C(F)(F)F [11:1 Fluorotelomer alcohol]; conditions: in DMSO
Protocol: as §1

Perfluorooctanamide = compound: NC(=O)C(F)(F)C(F)(F)C(F)(F)C(F)(F)C(F)(F)C(F)(F)C(F)(F)F [Perfluorooctanamide]; conditions: 2200 nM; in DMSO
Protocol: as §1

[13] = compound: FC(F)C(F)(F)COCC1CO1 [((2,2,3,3-Tetrafluoropropoxy)methyl)oxirane]; conditions: 2200 nM; in DMSO
Protocol: as §1

[14] = compound: FC(F)(F)C(F)(F)C(F)(F)C(F)(F)C(F)(F)C(F)(F)C(F)(F)I [1-Iodopentadecafluoroheptane]; conditions: in DMSO
Protocol: as §1

Row | Test System | level (log10) [1] | level (log10) ([2]; 740 nM) | level (log10) ([2]; 2200 nM) | level (log10) ([2]; 6700 nM) | level (log10) ([2]; 20000 nM) | level (log10) [3] | level (log10) [4] | level (log10) [5] | level (log10) ([6]; 2200 nM) | level (log10) ([6]; 6700 nM) | level (log10) ([6]; 20000 nM) | level (log10) ([6]; 60000 nM) | level (log10) [7] | level (log10) [8] | level (log10) (Perfluoropropanoic acid) | level (log10) [9] | level (log10) (Perfluoroundecanoic acid; 740 nM) | level (log10) (Perfluoroundecanoic acid; 2200 nM) | level (log10) (Perfluorobutanoic acid) | level (log10) [10] | level (log10) [11] | level (log10) ([12]; 370 nM) | level (log10) ([12]; 1100 nM) | level (log10) ([12]; 3300 nM) | level (log10) ([12]; 10000 nM) | level (log10) (Perfluorooctanamide) | level (log10) [13] | level (log10) ([14]; 740 nM) | level (log10) ([14]; 2200 nM) | level (log10) ([14]; 6700 nM) | level (log10) ([14]; 20000 nM)
1 | BF4T:uPA | -0.0335 ± 0.022 | -0.0145 ± 0.019 | -0.0205 ± 0.028 | -0.011 ± 0.035 | -0.012 ± 0.033 | -0.0265 ± 0.021 | 0.0155 ± 0.0078 | 0.0075 ± 0.0064 | 0.018 ± 0.047 | -0.007 ± 0.016 | -0.016 ± 0.0057 | 0.0065 ± 0.018 | 0.0105 ± 0.023 | 0.01 ± 0.025 | -0.0095 ± 0.0021 | 0.0055 ± 0.026 | -0.016 ± 0.038 | -0.0355 ± 0.015 | 0.004 ± 0.0071 | -0.0155 ± 0.0035 | -0.015 ± 0.011 | -0.008 ± 0.0085 | 0 | -0.005 ± 0.0071 | 0.0015 ± 0.0064 | -0.005 ± 0.024 | 0.01 ± 0.0071 | -0.0145 ± 0.056 | 0.0115 ± 0.005 | -0.0365 ± 0.016 | -0.026 ± 0.016
2 | BT:B cell Proliferation | 0 ± 0.04 | 0.013 ± 0.014 | -0.017 ± 0.069 | 0.0135 ± 0.029 | 0.0045 ± 0.015 | 0.0015 ± 0.035 | -0.028 ± 0.018 | -0.0105 ± 0.011 | 0.0095 ± 0.043 | 0.0085 ± 0.0021 | -0.011 ± 0.0014 | 0.012 ± 0.037 | 0.014 ± 0.0085 | -0.006 ± 0.0085 | 0.0145 ± 0.06 | 0.0085 ± 0.03 | -0.0245 ± 0.033 | 0.031 ± 0.025 | -0.0295 ± 0.005 | -0.015 ± 0.03 | 0.03 ± 0.0099 | -0.0445 ± 0.074 | -0.103 ± 0.023 | -0.144 ± 0.026 | -0.44 ± 0.42 | -0.0015 ± 0.025 | -0.004 ± 0.014 | -0.016 ± 0.0028 | 0.0135 ± 0.028 | -0.0045 ± 0.005 | 0.019 ± 0.0071
3 | BT:PBMC Cytotoxicity | 0.013 ± 0.0057 | 0.013 ± 0.0014 | 0.01 ± 0.0099 | 0.0115 ± 0.0035 | 0.0115 ± 0.011 | 0.03 ± 0.0042 | -0.0625 ± 0.015 | 0.0015 ± 0.0035 | -0.017 ± 0.0042 | -0.016 ± 0.0042 | 0.002 ± 0.0042 | 0.021 ± 0.0057 | 0.0025 ± 0.005 | -0.006 ± 0.071 | -0.008 ± 0.028 | 0.008 ± 0.062 | 0.044 ± 0.02 | 0.023 ± 0.024 | 0.006 ± 0.011 | 0.031 ± 0.0057 | -0.0025 ± 0.018 | -0.009 ± 0.052 | -0.073 ± 0.044 | -0.09 ± 0.038 | -0.0775 ± 0.019 | 0.027 ± 0.052 | 0.0035 ± 0.025 | 0.033 ± 0.057 | 0.0085 ± 0.076 | 0.014 ± 0.0057 | 0.0075 ± 0.049
4 | BT:Secreted IgG | 0.0025 ± 0.06 | 0.0075 ± 0.0078 | 0.0135 ± 0.0092 | -0.0075 ± 0.06 | 0.0115 ± 0.074 | -0.009 ± 0.0085 | -0.0595 ± 0.05 | 0.0655 ± 0.025 | -0.036 ± 0.03 | -0.041 ± 0.048 | -0.0035 ± 0.016 | -0.0205 ± 0.013 | 0.013 ± 0.0057 | -0.0145 ± 0.0035 | 0.0305 ± 0.012 | 0.0255 ± 0.053 | -0.0095 ± 0.0092 | 0.0065 ± 0.0078 | -0.006 ± 0.04 | 0.0015 ± 0.071 | -0.019 ± 0.014 | 0.005 ± 0.016 | 0.007 ± 0.025 | 0.0025 ± 0.033 | -0.014 ± 0.054 | -0.0025 ± 0.047 | 0.0515 ± 0.022 | -0.007 ± 0.044 | -0.006 ± 0.017 | -0.006 ± 0.05 | -0.01 ± 0.044
5 | BT:sIL-2 | 0.0475 ± 0.087 | -0.0125 ± 0.0035 | -0.0185 ± 0.073 | 0.0055 ± 0.0035 | -0.0045 ± 0.019 | 0.054 ± 0.081 | -0.181 ± 0.044 | 0.0445 ± 0.029 | 0.0125 ± 0.032 | 0.029 ± 0.058 | -0.049 ± 0.12 | 0.001 ± 0.0085 | 0.029 ± 0.15 | -0.0525 ± 0.015 | -0.0505 ± 0.04 | 0.007 ± 0.078 | -0.055 ± 0.028 | 0 ± 0.03 | -0.017 ± 0.02 | -0.0065 ± 0.067 | 0.0425 ± 0.076 | 0.0575 ± 0.013 | 0.108 ± 0.058 | 0.0255 ± 0.083 | -0.02 ± 0.073 | -0.0565 ± 0.013 | 0.074 ± 0.023 | -0.0605 ± 0.035 | -0.012 ± 0.0085 | -0.113 ± 0.07 | -0.017 ± 0.081
6 | BT:sIL-6 | 0.075 ± 0.031 | 0.0085 ± 0.052 | -0.0435 ± 0.0021 | 0.009 ± 0.017 | -0.0575 ± 0.042 | 0.0155 ± 0.028 | -0.181 ± 0.059 | 0.0715 ± 0.0092 | 0.0285 ± 0.057 | 0.032 ± 0.089 | -0.0455 ± 0.056 | -0.025 ± 0.03 | 0.016 ± 0.089 | -0.0405 ± 0.012 | -0.0105 ± 0.043 | 0.0085 ± 0.046 | -0.0475 ± 0.021 | 0.0175 ± 0.016 | 0.05 ± 0.04 | 0.0555 ± 0.028 | -0.016 ± 0.0028 | 0.1 ± 0.018 | 0.209 ± 0.0092 | 0.116 ± 0.034 | 0.083 ± 0.085 | -0.019 ± 0.031 | 0.0495 ± 0.036 | -0.047 ± 0.031 | 0.029 ± 0.03 | -0.0825 ± 0.0078 | 0.024 ± 0.044
7 | BT:sIL-17A | 0.0665 ± 0.09 | 0.053 ± 0.085 | 0.047 ± 0.082 | 0.0035 ± 0.1 | -0.0305 ± 0.15 | -0.177 ± 0.084 | -0.184 ± 0.16 | -0.0265 ± 0.057 | -0.053 ± 0.2 | -0.01 ± 0.047 | 0.024 ± 0.14 | -0.124 ± 0.13 | 0.119 ± 0.1 | -0.115 ± 0.076 | -0.045 ± 0.13 | 0.021 ± 0.0071 | 0.043 ± 0.045 | 0.0175 ± 0.015 | -0.235 ± 0.03 | -0.064 ± 0.073 | -0.0615 ± 0.05 | 0.161 ± 0.23 | 0.329 ± 0.16 | 0.401 ± 0.032 | 0.325 ± 0.06 | -0.0895 ± 0.044 | 0.0065 ± 0.13 | 0.019 ± 0.05 | -0.0405 ± 0.16 | -0.213 ± 0.3 | -0.112 ± 0.31
